# Results taken from PubChem BioAssay AID504444 (National Center for Advancing Translational Sciences (NCATS), 2011).
# The campaign covered roughly 360,000 compounds. About 7,500 (2.1%) were called active. The inconclusive results got no clear call from the source; some entries with a clear call stand among them for comparison. The call rests on the fitted dose curve; in most records, active means well fitted inhibition curve with a large enough effect; inconclusive means small, poorly fitted or top-dose-only effect, or effect the other way; inactive means flat fitted curve, though single readings scatter. Potencies beside an inconclusive call are fits to weak or partial responses and may not hold up.
# Assay: Nrf2 qHTS screen for inhibitors; further: nearly all actives have a fitted effect of over 60% in size
# Conditions: A549 ARE-Fluc reporter, luciferase luminescence, 18-24 h; series mostly up to 46 µM
# Method in brief: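 Concentration-response testing used A549 ARE_Fluc cells at 5000 cells/well. Following an 18-24 h compound incubation, viability was read by fluorescence (Ex 405/Em 525) and luciferase output by luminescence.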
# Potency means the concentration at half of the fitted maximal effect.
row,Compound,Potency
1,CCOc1ccc(Nc2nc3c(S(=O)(=O)c4cccc(Cl)c4)nnn3c3ccsc23)cc1,active: 14.6 µM
2,Cc1sc2nc(C3CC3)nc(N3CCN(C(=O)c4ccc(Cl)cc4)CC3)c2c1C,"inconclusive: 20.6 µM [falling, single point]"
3,CCN1CCC2(CC1)N=C(c1ccc(F)cc1)C(=S)N2C(=O)c1ccc(C)cc1,active: 16.4 µM
4,Cc1cccc(C)c1-n1nnnc1-c1cnccc1C(F)(F)F,"inconclusive: 7.31 µM [falling, partial curve, poor fit]"
5,CC(=O)c1ccc(N2Cc3ccccc3C2)cc1,"inconclusive: 6.51 µM [activator, partial curve]"
6,COc1cc(NC(=O)NNC(=O)c2cc3occc3n2C)cc(OC)c1OC,inactive
7,COc1ccc(-c2noc(CCC(=O)N3CCN(c4cccc(C)c4C)CC3)n2)cc1,"inconclusive: 29.1 µM [falling, single point]"
8,NC(=S)Nc1nc2ccccc2s1,"inconclusive: 29.1 µM [activator, single point]"
9,O=c1cc(-c2ccccc2)[nH]c2ccc(F)cc12,"inconclusive: 29.1 µM [activator, single point]"
10,CCc1ccc(OCC(=O)N(Cc2ccco2)Cc2ccccc2Cl)cc1,"inconclusive: 23.1 µM [falling, single point]"
11,Cc1nn(Cc2ccccc2)c(Cl)c1/C=C/C(=O)OCC(=O)N(C)C1CCS(=O)(=O)C1 (stereo not given),"inconclusive: 29.1 µM [falling, single point]"
12,COc1ccc2c(c1)c1c(c(=O)n(-c3ccccc3)c(=O)n1CC(=O)NCCC1=CCCCC1)n2C,"inconclusive: 16.4 µM [activator, single point]"
13,COc1ccc(S(=O)(=O)N(CCC(=O)O)Cc2ccccc2)cc1,inactive
14,CCOc1ccc2c(c1)C(c1cccs1)=NNC(c1cccnc1)=N2,inactive
15,CCCc1[nH][nH]c(=O)c1C(c1cccc(Cl)c1)C(C#N)C#N (stereo not given),"inconclusive: 11.6 µM [falling, partial curve, poor fit]"
16,O=C(CSc1cccc[n+]1[O-])NN(c1ccccc1)c1ccccc1,"inconclusive: 32.6 µM [activator, single point]"
17,Cn1nc(C(=O)NNc2c(F)c(F)cc(F)c2F)c2ccccc2c1=O,"inconclusive: 16.4 µM [falling, single point]"
18,CC(C)(C)OC(=O)N1CCC(C(=O)Nc2cccc(C(=O)NCc3ccccc3)c2)CC1,"inconclusive: 20.6 µM [falling, single point]"
19,COc1ccc(C(=O)/C=C/c2ccc(O)cc2)c2c1CC(O)C(C)(C)O2 (stereo not given),inactive
20,CC(C)(C)c1ccc(S(=O)(=O)NCCOCC(F)(F)C(F)F)cc1,"inconclusive: 20.6 µM [falling, partial curve, poor fit]"
21,NC(=O)N/N=C(/CCCCCC/C(=N\NC(N)=O)c1ccccc1)c1ccccc1,"inconclusive: 20.6 µM [activator, single point]"
22,CCOCCCNc1nc(-c2ccccc2)nc2ccccc12,"inconclusive: 29.1 µM [falling, single point]"

row,Compound,Potency
1,N=c1c(C(=O)NCC2CCCO2)cc2c(=O)n3ccccc3nc2n1CCCO (stereo not given),inactive
2,O=C(Nc1ccc(CN2CCCCC2)cc1)c1cccc(Br)c1,inactive
3,COc1cccc(C2NC(CCSC)(C(=O)O)C3C(=O)N(C(C)C)C(=O)C23)c1O (stereo not given),"inconclusive: 32.6 µM [falling, single point]"
4,COc1ccc(Cn2c(C(=O)O)c(CNCCc3ccco3)c3ccc(C)cc32)cc1,"inconclusive: 5.8 µM [activator, full curve, poor fit]"
5,Fc1ccccc1CSc1ccc(-c2ccco2)nn1,"inconclusive: 9.2 µM [activator, partial curve]"
6,CCC(C)C(NC(=O)c1ccc(Cl)cc1Cl)C(=O)O (stereo not given),"inconclusive: 16.4 µM [falling, partial curve, poor fit]"
7,O=C(Nc1ccc2ccccc2c1[N+](=O)[O-])c1ccccc1,"inconclusive: 2.31 µM [activator, full curve]"
8,CCOc1ccc(N=C(/C(C(=O)C(=O)N2CCOCC2)=C(\O)c2ccccc2)c2ccccc2)cc1,"inconclusive: 10.3 µM [activator, partial curve, poor fit]"
9,Cc1nn(CCCC(=O)NCCc2ccc(Cl)cc2)c(=O)c2c1sc1ccccc12,"inconclusive: 3.26 µM [falling, partial curve, poor fit]"
10,CC(C)(CNC(=O)c1ccc(-c2ccccc2Cl)o1)N1CCOCC1,"inconclusive: 6.51 µM [activator, full curve]"
11,Nc1nonc1C(=O)NCCNC(=O)c1ccc(Cl)c(Cl)c1,"inconclusive: 0.146 µM [activator, full curve, poor fit]"
12,N#Cc1c(NC(=O)c2ccccc2Cl)n(Cc2ccccc2)c2nc3ccccc3nc12,active: 16.4 µM
13,O=C(CC1C(=O)NCCN1Cc1c(F)cccc1Cl)NC1CCCCCC1 (stereo not given),"inconclusive: 2.06 µM [activator, single point]"
14,C/C(CCC(C)C)=N\NC(=S)NCc1ccccc1,inactive
15,CCSc1ccccc1C(=O)Nc1ccc([N+](=O)[O-])cc1OC,inactive
16,O=C1NC2(CCCC2)C(=O)N1CCS(=O)(=O)Oc1ccccc1,"inconclusive: 0.164 µM [falling, full curve, poor fit]"
17,CC(NC(=O)c1cnc2ccccc2n1)c1ccccc1 (stereo not given),"inconclusive: 3.66 µM [activator, partial curve, poor fit]"
18,CN(C)CCn1c(=O)n(Cc2ccco2)c(=O)c2c3c(sc21)CCCCC3,"inconclusive: 3.26 µM [activator, full curve, poor fit]"
19,COCC(=O)N1CCC(Oc2ccc(C(=O)N(C)CCCC3CCCC3)cc2)CC1,"inconclusive: 29.1 µM [falling, single point]"
20,CN(c1ccccc1)S(=O)(=O)c1nnc(NC(=O)C2CCCCC2)s1,"inconclusive: 14.6 µM [activator, single point]"
21,N=C1S/C(=C\c2cn[nH]c2-c2ccc(F)cc2)C(=O)N1c1ccccc1F,"inconclusive: 7.31 µM [activator, partial curve, poor fit]"
22,Cc1c(C(=O)NCc2ccccn2)sc2nc(-c3ccc(F)cc3)cn12,"inconclusive: 9.2 µM [falling, partial curve, poor fit]"

# Part of the list above, as tab-separated lines:
row	Compound	Potency
8	CCOc1ccc(N=C(/C(C(=O)C(=O)N2CCOCC2)=C(\O)c2ccccc2)c2ccccc2)cc1	inconclusive: 10.3 µM [activator, partial curve, poor fit]
9	Cc1nn(CCCC(=O)NCCc2ccc(Cl)cc2)c(=O)c2c1sc1ccccc12	inconclusive: 3.26 µM [falling, partial curve, poor fit]

# (cont.)

row,Compound,Potency
1,N#CC(C(=O)OCc1ccccc1)c1nc2ccccc2nc1N1CCOCC1 (stereo not given),"inconclusive: 29.1 µM [falling, single point]"
2,Cc1nc2ccccc2n2c(-c3ccccc3)c3c(=O)n(C)c(=O)n(C)c3c12,"inconclusive: 20.6 µM [falling, single point]"
3,Cn1nc(C(=O)NCc2cccc(Cl)c2)c2c1-c1ccccc1S(=O)(=O)C2,"inconclusive: 32.6 µM [falling, partial curve, poor fit]"
4,O=C(Nc1ccc2c(c1)OCO2)C1CC(c2c(F)cccc2Cl)=NO1 (stereo not given),"inconclusive: 6.51 µM [activator, full curve]"
5,COc1cc(C#Cc2c(-c3cncn3C)n(C)c3ccc(Br)cc23)cc(OC)c1,"inconclusive: 25.9 µM [falling, single point]"
6,CCCCCCCCC1CC(C(=O)Nc2ccccc2)C(=O)O1 (stereo not given),"inconclusive: 29.1 µM [falling, single point]"
7,Cc1ccccc1N(C)S(=O)(=O)c1nnc(NC(=O)c2ccccc2F)s1,"inconclusive: 7.31 µM [falling, single point]"
8,O=C(NCCCNCCCNC(=O)c1ccc(/C=N/O)nc1)c1ccc(/C=N/O)nc1,"inconclusive: 1.3 µM [falling, partial curve, poor fit]"
9,NC(=S)Nc1cc(Cl)cc(Cl)c1,"inconclusive: 13 µM [falling, partial curve, poor fit]"
10,CCc1ccc(NC2=NCC(c3ccccc3)S2)cc1 (stereo not given),"inconclusive: 25.9 µM [activator, partial curve]"
11,NC(=O)C1CCN(c2ncnc3c2c(-c2ccccc2)cn3-c2ccccc2)CC1,inactive
12,CN(C(=O)c1ccc2c(Cl)c3c(nc2c1)CCC3)c1ccccc1,"inconclusive: 25.9 µM [activator, single point]"
13,O=C1CCCN2N=C(SCC(=O)Nc3ccc(Cl)cc3)SC2=N1,"inconclusive: 6.51 µM [falling, partial curve, poor fit]"
14,Cc1ccc(NC(=O)Nc2nc(-c3ccc(C)s3)cs2)cc1,"inconclusive: 18.4 µM [falling, partial curve, poor fit]"
15,CCc1c(C)c(C#N)c2[nH]c3ccccc3n2c1=S,"inconclusive: 29.1 µM [falling, single point]"
16,Cc1sc2ncnc(N3CCC(C(=O)NNC(=O)c4ccccc4Cl)CC3)c2c1C,active: 16.4 µM
17,O=C(/C=C/c1ccccc1)CCN1CCCCC1,inactive
18,CCOc1ccccc1NS(=O)(=O)c1ccc2c(c1)CC(C)N2C(=O)C1CCC1 (stereo not given),"inconclusive: 29.1 µM [falling, single point]"
19,O=C(Nc1ccccc1[N+](=O)[O-])c1cccc(N2C(=O)CCC2=O)c1,"inconclusive: 14.6 µM [activator, single point]"
20,CCOC(=O)/C(C#N)=C/c1c(N2CCN(c3ccc(OC)cc3)CC2)nc2c(C)cccn2c1=O,"inconclusive: 16.4 µM [falling, single point]"
21,Nc1c2nc(-c3ccccc3)[nH]c(=O)c2nc(=O)n1-c1ccccc1,"inconclusive: 32.6 µM [falling, single point]"

# 2 entries from above, bar-delimited.
row | Compound | Potency
12 | COc1ccc2c(c1)c1c(c(=O)n(-c3ccccc3)c(=O)n1CC(=O)NCCC1=CCCCC1)n2C | inconclusive: 16.4 µM [activator, single point]
13 | O=C(CC1C(=O)NCCN1Cc1c(F)cccc1Cl)NC1CCCCCC1 (stereo not given) | inconclusive: 2.06 µM [activator, single point]
